Measured data: PubChem BioAssay AID686943 (Drosophila RNAi Screening Center, 2013)

Assay: 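Knockdowns that increase or decrease active ERK after insulin receptor stimulation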 (primary screen)
Cells: Drosophila S2R+ haemocyte-like cells expressing YFP-tagged ERK (Rolled)
Reagent: long dsRNA against Drosophila genes
Challenge: insulin stimulation versus unstimulated cells; dose and duration not given
Measurement: 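Per-plate z-scores of phospho-ERK immunostaining normalised to YFP-tagged ERK, measured with and without insulin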
Reading the numbers: replicate 1, z-score of dpERK with insulin: higher = more active ERK per ERK-YFP after insulin
The screen tested about 23,000 reagents; shown is an unselected part of those that have a named target and a result. 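Extra replicates exist only for a retested subset of genes; insulin dose and duration not given; both raised and lowered dpERK matter.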 Not all columns of the deposit are shown. Not stated in the record: the amount of reagent, the time to read-out.

What did the screen give for CG32572 [DRSC19525]?
replicate 1, z-score of dpERK with insulin: -0.07

What did the screen give for CG32572 [DRSC19526]?
replicate 1, z-score of dpERK with insulin: -0.13

For CG2765 [DRSC04315], what was measured?
replicate 1, z-score of dpERK with insulin: -0.25

With Cdc23 (Cell division cycle 23) [DRSC02708], what does the deposit list?
replicate 1, z-score of dpERK with insulin: 2.71

What is on record for CG5346 [DRSC15778]?
replicate 1, z-score of dpERK with insulin: -1.01

How did the screen score GILT2 (Gamma-interferon-inducible lysosomal thiol reductase 2) [DRSC14196]?
replicate 1, z-score of dpERK with insulin: 0.06

With Rfk (Riboflavin kinase) [DRSC15454], what was measured?
replicate 1, z-score of dpERK with insulin: 0.95

What is on record for CG10339 [DRSC04065]?
replicate 1, z-score of dpERK with insulin: -0.13

For OtopLb (Otopetrin-like b) [DRSC00594], what does the deposit list?
replicate 1, z-score of dpERK with insulin: -2.22

With e(y)2 (enhancer of yellow 2) [DRSC19640], what does the deposit list?
replicate 1, z-score of dpERK with insulin: -0.23

What is on record for CSN8 (COP9 signalosome subunit 8) [DRSC02257]?
replicate 1, z-score of dpERK with insulin: -0.06

With CG14183 [DRSC10182], what was measured?
replicate 1, z-score of dpERK with insulin: 0

For CG6638 [DRSC10680], what does the deposit list?
replicate 1, z-score of dpERK with insulin: -0.16

For CG2641 [DRSC15441], what was measured?
replicate 1, z-score of dpERK with insulin: 0.35

For CG7889 [DRSC20066], what does the deposit list?
replicate 1, z-score of dpERK with insulin: 0.22

Which result is listed for CG13917 [DRSC08386]?
replicate 1, z-score of dpERK with insulin: 0.99

What is on record for CG6656 [DRSC16085]?
replicate 1, z-score of dpERK with insulin: 0.2

In a second layout: 2 of the entries above.
{"gene knocked down": "CG14183", "dsRNA": "DRSC10182", "replicate 1, z-score of dpERK with insulin": 0}
{"gene knocked down": "CG6638", "dsRNA": "DRSC10680", "replicate 1, z-score of dpERK with insulin": -0.16}

Next results:
What is on record for CG17633 [DRSC02631]?
replicate 1, z-score of dpERK with insulin: 0.28

What is on record for CG14795 [DRSC18513]?
replicate 1, z-score of dpERK with insulin: 0.64

For CG9921 [DRSC20220], how do the results read?
replicate 1, z-score of dpERK with insulin: 1.09

How did the screen score Mgat4b [DRSC10256]?
replicate 1, z-score of dpERK with insulin: -0.28

With CG13590 [DRSC04226], what does the deposit list?
replicate 1, z-score of dpERK with insulin: 0.76

What is on record for lwr (lesswright) [DRSC00828]?
replicate 1, z-score of dpERK with insulin: -1.02

With CG30046 [DRSC06691], how do the results read?
replicate 1, z-score of dpERK with insulin: 0.53

Which result is listed for AOX1 (Aldehyde oxidase 1) [DRSC15339]?
replicate 1, z-score of dpERK with insulin: -0.1

With mad2 [DRSC10274], what was measured?
replicate 1, z-score of dpERK with insulin: 0.18

Which result is listed for bnb (bangles and beads) [DRSC20314]?
replicate 1, z-score of dpERK with insulin: -0.45

Which result is listed for fal (falten) [DRSC11087]?
replicate 1, z-score of dpERK with insulin: 0.07

For CG6689 [DRSC16095], what was measured?
replicate 1, z-score of dpERK with insulin: -0.73

What is on record for CG43329 [DRSC11672]?
replicate 1, z-score of dpERK with insulin: -1.29

For CG14269 [DRSC17912], what was measured?
replicate 1, z-score of dpERK with insulin: 1.8
